Measurements reported in PubChem BioAssay AID1259254 (NCATS, 2017).
In all, the deposit lists about 59,000 reagents; below is a random part of them. About 1,550 of all reagents (2.6%) were called active. 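G2 share is only a proxy for re-replication; each gene was hit by three separate siRNAs, and active genes were retested.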 Further read-outs or replicates are left out here. Not stated in the record: the amount of reagent.

Purpose: 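Genome-wide screen for genes that prevent DNA re-replication in cancer cells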 (primary screen)
Cells: human HCT116 colorectal cancer cells
Knock-down reagent: single siRNA against human genes
Time to read-out: 3 days
Detection: 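Nuclei stained with Hoechst and imaged; cell-cycle phase assigned by DNA content; G2 share scaled per plate, non-targeting siRNA 0%, GMNN siRNA 100%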
Reading the numbers: G2 robust z-score and G2 cells, % of GMNN control: higher = more G2 cells, more excess DNA replication
Rule for the call: 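Active siRNAs have a G2 robust z of 5 or more median absolute deviations over the median, which in these data means about 38% or higher of GMNN control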

G2 robust z-score	G2 cells, % of GMNN control	outcome	gene	PubChem SID
0.644	7.5	inactive	EHBP1L1 (EH domain binding protein 1 like 1)	SID160762149
1.3	12.1	inactive	EHBP1L1 (EH domain binding protein 1 like 1)	SID160762150
-0.242	1.26	inactive	EHBP1L1 (EH domain binding protein 1 like 1)	SID160762151
-0.597	-1.23	inactive	NPHP4 (nephrocystin 4)	SID160762663
-0.188	1.64	inactive	NPHP4 (nephrocystin 4)	SID160762664
0.238	4.65	inactive	NPHP4 (nephrocystin 4)	SID160762665
-0.45	-0.197	inactive	NOPCHAP1 (NOP protein chaperone 1)	SID160732380
-0.673	-1.77	inactive	NOPCHAP1 (NOP protein chaperone 1)	SID160755859
0.878	9.14	inactive	NOPCHAP1 (NOP protein chaperone 1)	SID160755860
0.0917	3.61	inactive	MAGEB6B (MAGE family member B6B)	SID160733288
2.07	17.6	inactive	MAGEB6B (MAGE family member B6B)	SID160766772
-0.563	-0.994	inactive	MAGEB6B (MAGE family member B6B)	SID160766773
2.68	21.8	inactive	RUVBL1 (RuvB like AAA ATPase 1)	SID160720413
-0.205	1.53	inactive	RUVBL1 (RuvB like AAA ATPase 1)	SID160720415
0.565	6.94	inactive	RUVBL1 (RuvB like AAA ATPase 1)	SID160720416
-1.56	-8.04	inactive	ROBO4 (roundabout guidance receptor 4)	SID160741882
-1.13	-4.98	inactive	ROBO4 (roundabout guidance receptor 4)	SID160741883
1.18	11.3	inactive	ROBO4 (roundabout guidance receptor 4)	SID160741884
-0.452	-0.212	inactive	PNISR (PNN interacting serine and arginine rich protein)	SID160732848
-0.0625	2.53	inactive	PNISR (PNN interacting serine and arginine rich protein)	SID160737332
-0.393	0.206	inactive	PNISR (PNN interacting serine and arginine rich protein)	SID160737333
0.618	7.31	inactive	RRAGD (Ras related GTP binding D)	SID160746922
-0.583	-1.14	inactive	RRAGD (Ras related GTP binding D)	SID160746923
2.67	21.8	inactive	RRAGD (Ras related GTP binding D)	SID160746924

Copied from the list.
Under “outcome”, PNISR (PNN interacting serine and arginine rich protein) [SID160732848] reads inactive
Under “G2 cells, % of GMNN control”, RRAGD (Ras related GTP binding D) [SID160746924] reads 21.8
For “G2 robust z-score”, NPHP4 (nephrocystin 4) [SID160762664] reads -0.188
NPHP4 (nephrocystin 4) [SID160762663], outcome: inactive
Result for MAGEB6B (MAGE family member B6B) [SID160766772] under “G2 cells, % of GMNN control”: 17.6
Result of MAGEB6B (MAGE family member B6B) [SID160766773] under “G2 robust z-score”: -0.563

The results go on:
G2 robust z-score	G2 cells, % of GMNN control	outcome	gene	PubChem SID
1.69	14.9	inactive	UBL3 (ubiquitin like 3)	SID160714577
0.119	3.8	inactive	UBL3 (ubiquitin like 3)	SID160714578
2.96	23.8	inactive	UBL3 (ubiquitin like 3)	SID160733536
-1.27	-5.97	inactive	ATN1 (atrophin 1)	SID160756481
0.898	9.28	inactive	ATN1 (atrophin 1)	SID160756492
2.13	18	inactive	ATN1 (atrophin 1)	SID160756500
0.922	9.45	inactive	NACC1 (nucleus accumbens associated 1)	SID160754766
-0.00403	2.94	inactive	NACC1 (nucleus accumbens associated 1)	SID160754767
-1.01	-4.11	inactive	NACC1 (nucleus accumbens associated 1)	SID160754768
-0.983	-3.95	inactive	TK2 (thymidine kinase 2)	SID160765626
-0.677	-1.79	inactive	TK2 (thymidine kinase 2)	SID160765728
-0.708	-2.02	inactive	TK2 (thymidine kinase 2)	SID160765820
2.47	20.3	inactive	KPNB1 (karyopherin subunit beta 1)	SID160776344
2.44	20.1	inactive	KPNB1 (karyopherin subunit beta 1)	SID160776345
1.45	13.1	inactive	KPNB1 (karyopherin subunit beta 1)	SID160776346
10.3	75.3	active	PRM1 (protamine 1)	SID160715050
-0.237	1.3	inactive	PRM1 (protamine 1)	SID160715051
0.11	3.74	inactive	PRM1 (protamine 1)	SID160733638
6.75	50.5	active	KIF13B (kinesin family member 13B)	SID160735955
0.299	5.07	inactive	KIF13B (kinesin family member 13B)	SID160735957
0.18	4.24	inactive	KIF13B (kinesin family member 13B)	SID160735958
-0.608	-1.31	inactive	TNIP3 (TNFAIP3 interacting protein 3)	SID160734962
-0.0161	2.85	inactive	TNIP3 (TNFAIP3 interacting protein 3)	SID160749798
-0.654	-1.64	inactive	TNIP3 (TNFAIP3 interacting protein 3)	SID160749799
-0.606	-1.3	inactive	DND1 (DND microRNA-mediated repression inhibitor 1)	SID160765243
1.36	12.6	inactive	DND1 (DND microRNA-mediated repression inhibitor 1)	SID160765244
-0.447	-0.177	inactive	DND1 (DND microRNA-mediated repression inhibitor 1)	SID160765245
0.704	7.92	inactive	ENTR1 (endosome associated trafficking regulator 1)	SID160729271
0.35	5.43	inactive	ENTR1 (endosome associated trafficking regulator 1)	SID160729272
-0.754	-2.34	inactive	ENTR1 (endosome associated trafficking regulator 1)	SID160729273
0.298	5.06	inactive	ASCL2 (achaete-scute family bHLH transcription factor 2)	SID160720655
3.25	25.8	inactive	ASCL2 (achaete-scute family bHLH transcription factor 2)	SID160720666
0.191	4.31	inactive	ASCL2 (achaete-scute family bHLH transcription factor 2)	SID160731234
4.8	36.7	inactive	PGAM2 (phosphoglycerate mutase 2)	SID160714199
-0.505	-0.584	inactive	PGAM2 (phosphoglycerate mutase 2)	SID160723978
-0.722	-2.11	inactive	PGAM2 (phosphoglycerate mutase 2)	SID160723979
0.709	7.95	inactive	CMTM2 (CKLF like MARVEL transmembrane domain containing 2)	SID160758340
-0.637	-1.51	inactive	CMTM2 (CKLF like MARVEL transmembrane domain containing 2)	SID160758341
-0.539	-0.827	inactive	CMTM2 (CKLF like MARVEL transmembrane domain containing 2)	SID160758342
-1.37	-6.65	inactive	TMEM161A (transmembrane protein 161A)	SID160742517
0.125	3.85	inactive	TMEM161A (transmembrane protein 161A)	SID160742518
0.0168	3.09	inactive	TMEM161A (transmembrane protein 161A)	SID160742519
-0.379	0.301	inactive	NPIPB7 (nuclear pore complex interacting protein family member B7)	SID160767763
-0.95	-3.72	inactive	NPIPB7 (nuclear pore complex interacting protein family member B7)	SID160767764
0.702	7.91	inactive	NPIPB7 (nuclear pore complex interacting protein family member B7)	SID160767765
